Results of single-concentration screens

Chains of the proteins cited; added tags and fusions are not shown. Residues count along the entry.
UniProt A4I591, 1-473: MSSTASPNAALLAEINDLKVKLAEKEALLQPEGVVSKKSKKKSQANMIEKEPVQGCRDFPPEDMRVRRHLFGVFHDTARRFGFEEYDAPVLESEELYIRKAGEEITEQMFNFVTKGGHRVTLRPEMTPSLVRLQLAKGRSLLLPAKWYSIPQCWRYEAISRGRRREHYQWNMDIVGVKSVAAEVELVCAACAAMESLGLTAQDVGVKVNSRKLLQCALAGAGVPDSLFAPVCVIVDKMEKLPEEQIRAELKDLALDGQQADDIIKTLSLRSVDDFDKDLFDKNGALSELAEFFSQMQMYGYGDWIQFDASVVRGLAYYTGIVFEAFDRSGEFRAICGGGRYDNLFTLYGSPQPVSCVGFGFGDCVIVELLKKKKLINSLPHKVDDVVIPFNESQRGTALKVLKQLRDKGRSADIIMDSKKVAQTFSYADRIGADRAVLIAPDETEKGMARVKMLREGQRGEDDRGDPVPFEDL
UniProt P9WFT3, whole entry: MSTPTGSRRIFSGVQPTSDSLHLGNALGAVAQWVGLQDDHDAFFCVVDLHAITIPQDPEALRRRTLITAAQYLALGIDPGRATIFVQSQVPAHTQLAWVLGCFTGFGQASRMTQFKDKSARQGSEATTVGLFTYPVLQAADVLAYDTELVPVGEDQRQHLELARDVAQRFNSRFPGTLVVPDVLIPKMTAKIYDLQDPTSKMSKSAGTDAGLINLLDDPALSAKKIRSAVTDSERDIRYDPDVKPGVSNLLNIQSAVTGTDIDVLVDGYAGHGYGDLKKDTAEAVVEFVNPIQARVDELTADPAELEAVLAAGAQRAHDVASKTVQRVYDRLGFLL
UniProt P9WNZ1, whole entry: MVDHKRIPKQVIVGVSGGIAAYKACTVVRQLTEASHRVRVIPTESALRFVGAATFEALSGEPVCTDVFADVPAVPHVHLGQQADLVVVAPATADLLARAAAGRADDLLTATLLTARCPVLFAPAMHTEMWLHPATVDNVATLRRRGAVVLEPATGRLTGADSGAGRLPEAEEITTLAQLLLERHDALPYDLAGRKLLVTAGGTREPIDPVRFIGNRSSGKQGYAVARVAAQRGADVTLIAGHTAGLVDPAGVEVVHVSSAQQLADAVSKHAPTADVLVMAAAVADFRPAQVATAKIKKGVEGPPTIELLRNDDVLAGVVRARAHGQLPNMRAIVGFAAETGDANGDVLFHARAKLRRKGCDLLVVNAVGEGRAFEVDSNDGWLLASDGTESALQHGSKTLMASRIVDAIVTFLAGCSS

LiHisRS: 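Histidine-tRNA ligase, Leishmania infantum (UniProt A4I591). Enzyme assay of histidyl-tRNA synthetase; the read-out is not stated. Tested at 30 µM. Direction is inferred from retests: higher values go with stronger inhibition. The assay is labelled LdHisRS but filed under L. infantum. Of about 69,000 compounds tested this way, about 410 (0.6%) reached 50% or more in at least one test.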
MtTrpRS: 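Tryptophan-tRNA ligase, Mycobacterium tuberculosis (UniProt P9WFT3). Enzyme assay of tryptophanyl-tRNA synthetase; the read-out is not stated. Concentration: 10 µM. Direction is not recorded; retested compounds ran higher, which suggests that high means inhibition. Size under these conditions: about 65,000 compounds, about 64 of them at 50% or above in at least one test.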
Toxoplasma: 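Assay of Toxoplasma gondii numbers, read through their beta-galactosidase reporter with a colour substrate. Tested at 10 µM. Higher reads as fewer parasites (inferred from which compounds were picked for retests). Of about 67,000 compounds tested this way, about 260 (0.38%) reached 50% or more in at least one test.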
CoaBC: 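Coenzyme A biosynthesis protein CoaBC, Mycobacterium tuberculosis (UniProt P9WNZ1). Enzyme assay of CoaBC with a phosphate dye (Biomol Green) read at 650 nm. Concentration: 30 µM. Direction is inferred from only a few compounds that gave an IC50; most scored high, so higher reads as stronger inhibition. Most strong results did not repeat in a second test. Of about 67,000 compounds tested this way, about 40 (0.06%) reached 50% or more in at least one test.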

Results are given as percent effect. The controls that fix the scale are not given in the record; negative values are as filed. Compounds were drawn at random from those tested, without regard to their results.

- Cc1nn(C)cc1CN1CCC(c2ncc(Cl)cc2S(C)(=O)=O)CC1 : LiHisRS: 8.451%; MtTrpRS: -5.145%; Toxoplasma: 19.6%; CoaBC: -2.466%
- CCSc1ccc(NC(=O)N2CCCC2c2ccncc2)cn1 (centres unmarked) : LiHisRS: 1.653%; MtTrpRS: -3.499%; Toxoplasma: -3.127%; CoaBC: -4.104%
- O=C1Nc2ccccc2C12CCN(Cc1cccs1)CC2 : LiHisRS: 17.31%; MtTrpRS: -2.907%; CoaBC: 6.049%
- O=C(O)C(F)(F)F.[H][C@@]12CCN(C)C[C@@]1([H])[C@H](C(=O)NCc1ccco1)CCO2 : Toxoplasma: -7%
- O=S(=O)(N1CCOCC1)N1CCCCC1CCn1cccn1 (centres unmarked) : LiHisRS: 6.667%; MtTrpRS: -4.49%; Toxoplasma: 16.76%; CoaBC: -0.1167%
- CC(Cc1ccc(Cl)cc1)NC(=O)Nc1cnn(CC(N)=O)c1 (centres unmarked) : LiHisRS: 11.3%; MtTrpRS: -7.412%; Toxoplasma: -2.108%; CoaBC: 0.1272%
- CNC(=O)[C@@H]1C[C@@H](NC(=O)Cc2nonc2C)CN1Cc1sccc1C : LiHisRS: 13.43%; MtTrpRS: -1.911%; Toxoplasma: -3.105%; CoaBC: 9.237%
- COc1ccc(C(=O)N2C[C@@H](C(=O)O)[C@H](c3cccc(F)c3)C2)c(O)c1 : LiHisRS: 8.197%; MtTrpRS: 8.004%; Toxoplasma: -8.638%; CoaBC: 3.004%
- COc1cccc(C(=O)N2CCc3c(nc(N)[nH]c3=O)C2)c1OC : LiHisRS: 20%; MtTrpRS: 1.485%; Toxoplasma: 21.03%; CoaBC: -0.5076%
- CCOC(=O)[C@H]1[C@@H](O)C(=O)N(C)C12CCN(S(=O)(=O)CC)CC2 : LiHisRS: 10.31%; Toxoplasma: 5.971%; CoaBC: 1.595%
- CC(C)N(C)C(=O)Cn1ncc(N(C)CCc2ccccc2)cc1=O : LiHisRS: 5.376%; MtTrpRS: -1.308%; Toxoplasma: -1.671%; CoaBC: 6.379%
- Cc1noc(C)c1CNc1c(N2CCCC2)cccc1N1CCCC1 : LiHisRS: 84%; MtTrpRS: 3.802%; Toxoplasma: -7.073%; CoaBC: -0.4132%
- Cc1ccc(CN2C[C@@H]3CCCO[C@@H]3[C@H](NC(=O)CC3CC3)C2)s1 : LiHisRS: 28.57%; MtTrpRS: -2.278%; CoaBC: 4.56%
- O=C(CCc1ccsc1)N1CCCCC1Cn1cccn1 (centres unmarked) : LiHisRS: 6.195%; MtTrpRS: 0.3762%; Toxoplasma: 4.262%; CoaBC: 3.394%
- CC(C)(C)C(CCO)NC(=O)Nc1ccncc1 (centres unmarked) : LiHisRS: 20.41%; MtTrpRS: 20.74%; Toxoplasma: 3.889%; CoaBC: 1.148%
- O=C(O)C(F)(F)F.[H][C@@]12CN(Cc3sccc3C)C[C@H](C(=O)NCCOC)[C@]1([H])CCO2 : Toxoplasma: 11.69%
- CC(C)c1cc(C2CCCN2Cc2nc(-c3ccco3)no2)no1 (centres unmarked) : LiHisRS: 13.11%; MtTrpRS: -4.252%; Toxoplasma: 19.21%; CoaBC: -1.79%
- CCN1C(=O)C[C@@H]2[C@@H]1CCN2S(=O)(=O)c1cccc(C)c1 : LiHisRS: 0%; MtTrpRS: -1.374%; CoaBC: -1.781%
- COCCN1CC2(CCC1=O)CCN(Cc1nnc(C)o1)CC2 : LiHisRS: 24.18%; MtTrpRS: 4.106%; Toxoplasma: -3.403%; CoaBC: 1.098%
- CN(C)C(C(=O)N1CCN(CC(F)(F)F)CC1)c1ccccc1F (centres unmarked) : LiHisRS: 21.21%; MtTrpRS: -0.09234%; Toxoplasma: 7.588%; CoaBC: 5.72%
- CN(C)S(=O)(=O)c1ccc(F)c(NC(=O)COCC2CC2)c1 : LiHisRS: 9.211%; MtTrpRS: -4.296%; Toxoplasma: -1.546%; CoaBC: 1.613%
- Cc1cccc(CN2CCS(=O)(=O)[C@@H]3CCN(C(=O)C4CC4)CC[C@@H]32)n1 : LiHisRS: 5.263%; MtTrpRS: 7.541%; CoaBC: -0.2114%
- Cn1cc(Cl)c(C(=O)N2CCC(N3CCc4ccccc4C3)CC2)n1 : LiHisRS: 20%; MtTrpRS: 13.92%; Toxoplasma: 4.976%; CoaBC: 3.659%
- O=C(Nc1cc(C(F)(F)F)c[nH]c1=O)N1CCCSCC1 : LiHisRS: 13.7%; MtTrpRS: -0.3997%; Toxoplasma: -0.6353%; CoaBC: 0.7229%
- Cl.O=C(NC[C@@]1(COc2cnccn2)C[C@@H](O)[C@@H](O)C1)C1CCCC1 : Toxoplasma: -4.685%
- Cc1cccc(CN2CCOCC3(CCN(C4CCOCC4)C3)C2)n1.O=C(O)C(F)(F)F.O=C(O)C(F)(F)F.O=C(O)C(F)(F)F (centres unmarked) : Toxoplasma: 4.221%
- [H][C@@]12CCC(=O)N(c3ccccc3)[C@]1([H])CCN2C(=O)C1CCOCC1 : Toxoplasma: 5.683%

Measurements from “University of Dundee, Small-Polar-MMV Screening Library” (2021), ChEMBL document CHEMBL3988442.